Data taken from ChEMBL document CHEMBL3988442, “University of Dundee, Small-Polar-MMV Screening Library” (2021).

Amino acid sequences for entries named in this document (tags omitted).
UniProt E9BF75, entry or part of it: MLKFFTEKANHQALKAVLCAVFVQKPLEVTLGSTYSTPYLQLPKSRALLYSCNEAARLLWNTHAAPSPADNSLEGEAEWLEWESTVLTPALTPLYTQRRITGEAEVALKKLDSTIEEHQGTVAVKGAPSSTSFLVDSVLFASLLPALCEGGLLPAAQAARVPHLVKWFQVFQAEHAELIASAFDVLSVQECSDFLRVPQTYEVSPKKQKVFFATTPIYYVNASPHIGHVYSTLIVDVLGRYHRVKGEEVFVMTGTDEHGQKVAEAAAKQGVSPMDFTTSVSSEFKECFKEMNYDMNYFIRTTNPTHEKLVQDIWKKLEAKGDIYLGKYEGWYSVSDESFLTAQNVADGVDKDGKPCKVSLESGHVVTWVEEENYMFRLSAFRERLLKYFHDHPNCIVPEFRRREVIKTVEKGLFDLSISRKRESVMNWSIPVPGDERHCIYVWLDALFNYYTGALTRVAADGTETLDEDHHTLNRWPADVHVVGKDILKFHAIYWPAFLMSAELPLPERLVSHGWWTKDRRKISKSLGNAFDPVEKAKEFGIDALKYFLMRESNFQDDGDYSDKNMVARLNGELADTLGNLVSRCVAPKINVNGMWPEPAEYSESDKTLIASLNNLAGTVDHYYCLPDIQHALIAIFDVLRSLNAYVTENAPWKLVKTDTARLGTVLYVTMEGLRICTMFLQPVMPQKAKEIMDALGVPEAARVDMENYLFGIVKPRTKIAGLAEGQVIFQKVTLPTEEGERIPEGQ

A: 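Primary screen of methionyl-tRNA synthetase; the read-out is not stated. Target: Methionyl-tRNA synthetase (putative), Leishmania donovani (UniProt E9BF75). The test concentration is not given. Values are per cent inhibition. Size under these conditions: about 68,000 compounds, about 24 of them at 50% or above in at least one test.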
B: 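Assay on Mycobacterium tuberculosis, filed only as a heat shock assay from Cornell; the read-out is not stated. The concentration is filed as 10 mM, unlikely as a test dose, so the dose is not known. Higher reads as stronger inhibition (inferred: compounds with an IC50 in retests scored well above the rest). Size under these conditions: about 69,000 compounds, about 930 of them at 50% or above in at least one test.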

Results are percentages, as filed.
The record does not define 0% and 100%; most values in the screen are far below 50% and negative numbers occur (in some assays of this library far below -100).
This is an unselected part of the compounds tested.

- CCC1CN(C(=O)CN2CCN(c3nccc(OC)n3)CC2)CCO1 (stereo not given) | A: 16%; B: -18.23%
- Cc1noc([C@H]2CC[C@@H]3[C@@H](CCN3c3ncccn3)O2)n1 | A: 17.14%
- Cc1ccsc1CN(CCCO)Cc1nc2ccccc2[nH]1 | A: 5.161%; B: -9.136%
- Cc1c(Cl)cccc1NCc1nc2n(n1)CCCCC2 | A: 14.73%; B: -7.407%
- O=C1CCCN1CCN1CCCCC1Cn1cccn1 (stereo not given) | A: 7.609%; B: -11.19%
- CC(=O)NC1CCCN(C(=O)NCCOc2ccc3c(c2)OCO3)C1 (stereo not given) | A: 16.48%; B: -0.4682%
- Cc1ccc(C)c(S(=O)(=O)CCN2CCc3c(ncn3C)C2)c1 | A: 14.74%; B: -25.94%
- CSCC(=O)NC1CCN(C(C)c2ccccc2)CC1 (stereo not given) | A: 29.12%; B: -12.86%
- Cn1cc(-c2nc(CN3CCc4c(ncn4C4CC4)C3)cs2)cn1 | A: 12.89%; B: 19.08%
- Cc1nn2cnnc2c(C)c1CCC(=O)Nc1nnc(C2CC2)s1 | A: 13.94%; B: -7.745%
- Cc1nnsc1C(=O)NCc1cccnc1N(C)C | A: 15.79%; B: -4.397%
- CC(NC(=O)c1cccc[n+]1[O-])C1CC1 (stereo not given) | A: 10.68%; B: -2.575%
- COCCNC(=O)Nc1ccc(F)c(C(N)=O)c1 | A: 8.014%; B: 15.23%
- CC(C(=O)Nc1ncccn1)N1CCCN(c2nccs2)CC1 (stereo not given) | A: 7.975%; B: 23.1%
- CC(O)CNC(=O)NCc1ccc(N2CCNC(=O)C2)cc1 (stereo not given) | A: 13.36%; B: 18.82%
- Cn1cccc1CN1CCc2ncnc(-c3cccnc3)c2CC1 | A: 16.24%; B: -25.32%
- O=C(NCCn1cccc1)C1CCN(C2CCCCC2)CC1 | A: 9.964%; B: 38.4%
- CN(C)C(=O)N1C[C@H](Oc2ccccn2)[C@H]2OCCC[C@H]21 | A: 13.73%
- COc1cccc([S+]([O-])CC(=O)NCc2cc(F)cc(F)c2)c1 (stereo not given) | A: 22.44%; B: 1.745%
- CCc1nc(C2CCCN2Cc2nc(C(C)(C)C)no2)no1 (stereo not given) | A: 2.452%; B: -7.444%
- Cc1ccc(-c2cc(C(=O)NCCC3=CCCCC3)[nH]n2)o1 | A: 15.53%; B: 46.03%
- CN(C)CCN1CCO[C@H]2CN(Cc3ccccn3)C[C@H]21 | A: 7.266%
- CCc1ncnc2c1CCN(Cc1ccc(OC)cc1)CC2 | A: 13.3%
- CC(=O)Nc1nc(C(=O)N2CCCCC2Cn2cccn2)cs1 (stereo not given) | A: 19.89%; B: 5.024%

Some entries from above, unchanged:

- CSCC(=O)NC1CCN(C(C)c2ccccc2)CC1 (stereo not given) : A: 29.12%; B: -12.86%
- Cc1ccc(C)c(S(=O)(=O)CCN2CCc3c(ncn3C)C2)c1 : A: 14.74%; B: -25.94%
- O=C(NCCn1cccc1)C1CCN(C2CCCCC2)CC1 : A: 9.964%; B: 38.4%